According to PubChem BioAssay AID504582 (Broad Institute, 2011):
The whole screen tested about 340,000 compounds, of which about 2,300 (0.68%) were called active. Inconclusive results, whose numbers are uncertain, are shown with a selection of clear calls. Cut-off read from the data, not from the text of the source: active = growth rescue above about 28% (passing the limit was not always enough); inconclusive = no clear call, values can overlap the other calls.

Experiment: rescue of yeast from PfHsp40 toxicity, primary screen, S. cerevisiae, ATP luminescence (AID 504582);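 note: yeast W303a lacking pdr1 and pdr3 grown in galactose medium; growth measured after three days at 30 °C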
Conditions: S. cerevisiae expressing PfHsp40, growth rescue, at 12.5 µM, active compounds read high

Row | Structure (SMILES) | growth rescue
1 | N=C(N)SCCc1cccc(CCSC(=N)N)c1 | inactive: 0.972%
2 | Clc1ccc(C2=NN(c3ccccc3)C(c3ccco3)C2)cc1 (stereo unspecified) | inactive: -0.252%
3 | CC(=O)Oc1ccc(N2C(=O)C3C4C=CC(O4)C3C2=O)cc1 (stereo unspecified) | inconclusive: 33.4%
4 | C=CC[C@@H](CC(=O)N(CCO)Cc1ccccc1)C(=O)N[C@@H](COC(=O)[C@@H](CC=C)CC(=O)OC(C)(C)C)Cc1c[nH]c2ccccc12 | inactive: 3.91%
5 | Cc1ccc2c(COC(=O)CC3Sc4ccccc4NC3=O)cc(=O)oc2c1C (stereo unspecified) | inactive: -0.506%
6 | COc1ccc(CNC(=O)CN2C(=O)C3CCCN3c3ncc(Cl)cc32)cc1 (stereo unspecified) | inactive: 0.756%
7 | C=CCN=c1scc(-c2ccco2)n1/N=C/c1ccc(O)c(O)c1O | inconclusive: 42.5%
8 | O=C(Nc1ccccc1)Nc1ccccc1Br | inconclusive: 26.5%
9 | Oc1c(I)cc(I)c2cccnc12 | inconclusive: 68.5%
10 | O=c1[nH]c(=O)n(Cc2ccccc2)c2c1C(C(F)(F)F)(C(F)(F)F)N=C(c1ccco1)N2 | inconclusive: 25.1%
11 | O=C(Nc1cccc(Cl)c1)c1ccc2c(=O)n3c(nc2c1)CCCCC3 | inconclusive: 27.2%
12 | O=C(CSCC(=O)Nc1ccccc1)N/N=C/c1c(O)ccc2ccccc12 | inconclusive: 34.3%
13 | Cc1ccc(NC(=S)NC2CCSc3ccccc32)cc1C (stereo unspecified) | inconclusive: 27.1%
14 | Cc1onc(-c2ccccc2)c1C(=O)NC(=S)NNC(=O)c1ccc(O)cc1O | active: 248%
15 | COc1cc(/C=C2\SC(=S)N(NS(=O)(=O)c3ccc(C)cc3)C2=O)cc(OC)c1OC | inconclusive: 27.1%
16 | COc1ccc(-c2cc(=O)c3c(O)cc(O)cc3o2)cc1 | inactive: 2.27%
17 | Cc1[nH]c2ccccc2c1C(=O)/C=C/c1ccccc1 | inconclusive: 77.7%
18 | CC(c1ccco1)N(Cc1ccco1)C(=O)Nc1ccccc1 (stereo unspecified) | inactive: -0.16%
19 | O=C(CSc1nnc2ccc(-c3ccc(F)cc3)nn12)N1CCOCC1 | inactive: -0.19%
20 | COc1ccc(Cn2c(=O)[nH]c3cc(C(=O)NCCCOC(C)C)ccc3c2=O)cc1 | inactive: 0.125%
21 | O=C(COc1ccc(Cl)cc1Cl)Nc1ccc(CN2CCCCC2)cc1 | inconclusive: 31.1%
22 | CC1CCCC(C)N1C(=O)COC(=O)CSc1ccc([N+](=O)[O-])cc1 (stereo unspecified) | inconclusive: 58.4%
23 | CCc1cc2cc3c(cc2nc1SCC(=O)Nc1nnc(C)s1)OCCO3 | inactive: -0.463%

Row | Structure (SMILES) | growth rescue
24 | COc1ccc2c3c(c(=O)oc2c1OCC(N)=O)CCCC3 | inconclusive: 61.6%
25 | Cc1c(C(N)=O)c(-c2ccccc2)nn1-c1ccccc1 | inactive: -1.45%
26 | COc1ccc(-c2nc(C3CCCCC3)no2)cc1OC | inactive: -0.466%
27 | Cc1ccc(OCCC(=O)Nc2ccc3c(c2)OCO3)cc1 | inactive: -0.013%
28 | O=C(Oc1ccc(N(C(=O)c2ccncc2)S(=O)(=O)c2ccc(Cl)cc2)cc1)c1ccncc1 | active: 422%
29 | COc1ccc(C(=O)NCc2cccnc2)cc1C(=O)NCc1cccnc1 | inconclusive: 29.4%
30 | C[n+]1c2n(c3ccccc31)N=C(c1cc(C(C)(C)C)c(O)c(C(C)(C)C)c1)CS2 | inconclusive: 81.6%
31 | C=C1C(=O)O[C@H]2[C@H]1[C@H](OC(=O)CC(=O)O[C@@H]1C[C@@H](C)[C@@H]3C=CC(=O)[C@@]3(C)[C@H]3OC(=O)C(=C)[C@H]13)C[C@@H](C)[C@H]1C=CC(=O)[C@]12C | inactive: 0.26%
32 | CCOC(=O)c1c(CSC(=N)N)n(-c2ccc(Br)cc2)c2cc(Br)c(OC(C)=O)cc12 | inactive: -0.617%
33 | Cc1ccc(NS(=O)(=O)c2ccc(Cl)c(C(=O)Nc3ccccc3-c3nc4ccccc4[nH]3)c2)cc1C | inactive: -0.906%
34 | CCCCC1(C)OC(=O)C(=Cc2ccc(N(C)C)cc2)C(=O)O1 (stereo unspecified) | inactive: -1.85%
35 | NC1=C(Cl)C(=O)c2ccc(S(N)(=O)=O)cc2C1=O | inactive: -1.19%
36 | O=C(Nc1ccc(-n2ccc(C(F)(F)F)n2)cc1)Nc1cccc(Cl)c1 | inconclusive: 48.1%
37 | N=C(N)c1ccccc1 | inconclusive: 26.2%
38 | CC(=O)c1ccccc1OC(=O)c1ccco1 | inactive: -0.948%
39 | S=C(NCCSCc1ccc(Cl)cc1)Nc1ccccc1 | inconclusive: 25.6%
40 | COc1ccc(-c2oc3c(OC)c(OC)c(OC)c(O)c3c(=O)c2OC)cc1OC | active: 71.2%
41 | CN1CCN(CC(=O)Nc2cccc(S(=O)(=O)N(C)c3ccccc3)c2)CC1 | inactive: -1.19%
42 | OC(CN1CCN(c2ccccn2)CC1)Cn1c2ccc(Cl)cc2c2cc(Cl)ccc21 (stereo unspecified) | inconclusive: 38.8%
43 | FC(F)(F)c1ccc(NC(=S)NC2CCCCC2)cc1 | inconclusive: 27.3%
44 | Cc1cccc(NC(=S)NC(C)(C)CC(C)(C)C)c1 | inconclusive: 28.9%
45 | Cc1ccc(NC(=O)CS(=O)(=O)c2cn(C)c3ccccc23)c(C)c1 | inactive: -1.73%
46 | O=C(Cc1c(O)c2ccccc2[nH]c1=O)N(Cc1ccccc1)Cc1ccccc1 | inconclusive: 30.8%

Row | Structure (SMILES) | growth rescue
47 | O=C(N/N=C/c1cccc(NC(=O)c2ccc(Cl)cc2)c1)c1ccc(O)cc1 | inconclusive: 31.6%
48 | O=C(CCC(=O)Nc1ccccc1)NNC(=O)COc1ccccc1 | inconclusive: 28.3%
49 | COCCn1c(SCC(=O)NC2CCCC2)nc2cccnc21 | inactive: 0.633%
50 | O=Cc1c(OCc2ccccc2)ccc2ccccc12 | active: 100%
51 | O=C(CCC1CCN(Cc2ccc(Cl)cc2)CC1)NC1CC1 | inactive: -1.23%
52 | CC(NC(=O)CN(C1CCCCC1)S(C)(=O)=O)c1ccccc1 (stereo unspecified) | inconclusive: 31.7%
53 | COc1c(Cl)cccc1-c1cn2ccc(C)cc2n1 | inconclusive: 29%
54 | O=C(CNC(=O)c1ccccc1)NCCCSc1ccccc1 | inactive: 0.246%
55 | CCOC(=O)C1CCCN(C(=O)c2cc(-c3ccc(C)cc3)nc3ccccc23)C1 (stereo unspecified) | inconclusive: 71.6%
56 | COC(=O)c1sc(-c2ccc(C(C)(C)C)cc2)cc1NC(=O)CSCC(=O)O | inconclusive: 26.4%
57 | N[C@@H](Cc1ccccc1)c1nnc2sc(SCc3ccccc3)nn12 | inconclusive: 57.5%
58 | CCC(C(=O)Nc1ccc(OC)c(Cl)c1)c1ccccc1 (stereo unspecified) | inconclusive: 49.6%
59 | CC(=O)Nc1ccc(C(=O)OCc2ccc(Cl)c(Cl)c2)cc1 | inconclusive: 105%
60 | Cc1cccc(NC(=S)N=Nc2c(O)[nH]c3ccccc23)c1 | inconclusive: 25%
61 | CNC(=O)c1nnsc1S(=O)c1ccc(Cl)cc1 (stereo unspecified) | active: 78.7%
62 | O=C(COC(=O)c1nc(Cl)ccc1Cl)Nc1ccc(Cl)cc1 | inconclusive: 101%
63 | NC(=O)c1c(NC(=O)c2ccccc2)sc2c1CCC2 | inconclusive: 45%
64 | O=C(CSc1ncc(-c2ccc(F)cc2)n1Cc1ccco1)Nc1ccc2c(c1)OCO2 | inconclusive: 25.6%
65 | CCCC(=O)Nc1ccc(C(=O)COC(=O)C2CC2C)cc1 (stereo unspecified) | inconclusive: 65.1%
66 | CC(C)(C)Cc1nnc(NC(=O)c2ccc([N+](=O)[O-])cc2)s1 | inconclusive: 30.5%
67 | Cc1nc2ccc(NC(=O)c3cccs3)cc2s1 | active: 37.1%
68 | COc1ccc(CCN(C)C(=O)CSc2nc3ncc(Cl)cc3[nH]2)cc1OC | inconclusive: 27.8%
69 | CCc1ccc(/C=C/C(=O)c2cc(Br)ccc(=O)c2O)cc1 | inconclusive: 237%

19 of the compounds above, comma-delimited.
Row,Structure (SMILES),growth rescue
47,O=C(N/N=C/c1cccc(NC(=O)c2ccc(Cl)cc2)c1)c1ccc(O)cc1,inconclusive: 31.6%
48,O=C(CCC(=O)Nc1ccccc1)NNC(=O)COc1ccccc1,inconclusive: 28.3%
49,COCCn1c(SCC(=O)NC2CCCC2)nc2cccnc21,inactive: 0.633%
50,O=Cc1c(OCc2ccccc2)ccc2ccccc12,active: 100%
51,O=C(CCC1CCN(Cc2ccc(Cl)cc2)CC1)NC1CC1,inactive: -1.23%
52,CC(NC(=O)CN(C1CCCCC1)S(C)(=O)=O)c1ccccc1 (stereo unspecified),inconclusive: 31.7%
53,COc1c(Cl)cccc1-c1cn2ccc(C)cc2n1,inconclusive: 29%
54,O=C(CNC(=O)c1ccccc1)NCCCSc1ccccc1,inactive: 0.246%
55,CCOC(=O)C1CCCN(C(=O)c2cc(-c3ccc(C)cc3)nc3ccccc23)C1 (stereo unspecified),inconclusive: 71.6%
56,COC(=O)c1sc(-c2ccc(C(C)(C)C)cc2)cc1NC(=O)CSCC(=O)O,inconclusive: 26.4%
57,N[C@@H](Cc1ccccc1)c1nnc2sc(SCc3ccccc3)nn12,inconclusive: 57.5%
58,CCC(C(=O)Nc1ccc(OC)c(Cl)c1)c1ccccc1 (stereo unspecified),inconclusive: 49.6%
59,CC(=O)Nc1ccc(C(=O)OCc2ccc(Cl)c(Cl)c2)cc1,inconclusive: 105%
60,Cc1cccc(NC(=S)N=Nc2c(O)[nH]c3ccccc23)c1,inconclusive: 25%
61,CNC(=O)c1nnsc1S(=O)c1ccc(Cl)cc1 (stereo unspecified),active: 78.7%
62,O=C(COC(=O)c1nc(Cl)ccc1Cl)Nc1ccc(Cl)cc1,inconclusive: 101%
63,NC(=O)c1c(NC(=O)c2ccccc2)sc2c1CCC2,inconclusive: 45%
64,O=C(CSc1ncc(-c2ccc(F)cc2)n1Cc1ccco1)Nc1ccc2c(c1)OCO2,inconclusive: 25.6%
65,CCCC(=O)Nc1ccc(C(=O)COC(=O)C2CC2C)cc1 (stereo unspecified),inconclusive: 65.1%

Later entries

Row | Structure (SMILES) | growth rescue
70 | CC(=O)N1CCN(C(=O)c2cc(S(=O)(=O)N3CCN(c4ccccc4)CC3)ccc2Cl)CC1 | inconclusive: 34.1%
71 | Cn1cc(C(=O)OCC(=O)NC2(C#N)CCCC2)c2ccccc21 | active: 65.7%
72 | Oc1ccc(/C=N/N(Cc2ccccc2)c2ccccc2)c(O)c1O | active: 41.7%
73 | COCc1ccc(CN2CCCCC2C(=O)Nc2ccc(Oc3ccccc3)nc2)o1 (stereo unspecified) | inconclusive: 43.8%
74 | CCCCCCCCN1[C@@H](CC(=O)OCC)c2ccc(C(F)(F)F)cc2S1(=O)=O | active: 38%
75 | CC(C)COC(=O)c1cccc2c1-c1ccccc1/C2=N\O | inconclusive: 117%
76 | OC(c1ccccc1)(c1ccccc1)c1ccncc1 | inactive: -1.13%
77 | Cc1ccc(/C=C2\SC(=O)N(CCC(=O)N3CCN(C)CC3)C2=O)cc1 | inconclusive: 44.1%
78 | O=C(COc1ccccc1)N1CCN(C/C=C/c2ccccc2)CC1 | inconclusive: 40.7%
79 | COc1cccc(NC(=O)C/C(C)=N/NC(=O)c2ccccc2Cl)c1 | active: 38.6%
80 | O=C(c1ccc(N2CCN(C(=O)c3ccccc3Br)CC2)cc1)c1cccc(F)c1 | active: 34.4%
81 | Cc1ccc(OCC(=O)N/N=C/c2ccc([N+](=O)[O-])o2)cc1 | inactive: 0.125%
82 | CC(C)Cc1nnc(NC(=O)CCc2ccccc2)s1 | inconclusive: 50.9%
83 | O=C1NC(=S)N/C1=C/c1cccc([N+](=O)[O-])c1 | active: 60.5%
84 | COc1ccc(C(=O)c2cc3c(cc2[N+](=O)[O-])OCCO3)cc1 | inconclusive: 76.1%
85 | O=C(/C=C/c1ccc(Br)cc1)NC(=S)NNC(=O)c1ccco1 | inconclusive: 95.7%
86 | CCn1c2ccccc2c2nc3cc(C(=O)O)ccc3nc21 | inconclusive: 25.6%
87 | CCCOC(=O)Nc1nc(-c2ccc(C)cc2)c(C)s1 | inconclusive: 44.7%
88 | COc1ccc(-n2cnc3cc(N)ccc32)cc1 | inconclusive: 27.5%
89 | CN(C)c1nc(SCc2ccccc2Cl)nc2c1CCCC2 | active: 155%
90 | N#CCCc1cccc(CCC#N)c1 | inconclusive: 45.6%
91 | Cc1cc(C)c2c(=O)n(CC(=O)Nc3ccc(Cl)cc3)sc2n1 | inconclusive: 25.2%
